Experimental data from patent US20160031955A1 (INSERM INSTITUT NATIONAL DE LA SANT ET DE LA RECHERCHE M …, published 2016).
Residue numbers refer to the chain shown, from its start. Names may count otherwise. Results are given in words; binding and its absence hold for the method and conditions named. Binding seen in cells or lysates may run through a third protein. Binding can be weak; no strength is given. Tags and fused reporters may be left off the sequences shown. Blank lines part the entries; values can stand above or below the binder they belong to.

Protein sequences, listed by entry. Tags and fused reporters are not part of them. Lines headed by an entry give the natural chain unless they say otherwise; changes in a name come on top.
UniProt O95831: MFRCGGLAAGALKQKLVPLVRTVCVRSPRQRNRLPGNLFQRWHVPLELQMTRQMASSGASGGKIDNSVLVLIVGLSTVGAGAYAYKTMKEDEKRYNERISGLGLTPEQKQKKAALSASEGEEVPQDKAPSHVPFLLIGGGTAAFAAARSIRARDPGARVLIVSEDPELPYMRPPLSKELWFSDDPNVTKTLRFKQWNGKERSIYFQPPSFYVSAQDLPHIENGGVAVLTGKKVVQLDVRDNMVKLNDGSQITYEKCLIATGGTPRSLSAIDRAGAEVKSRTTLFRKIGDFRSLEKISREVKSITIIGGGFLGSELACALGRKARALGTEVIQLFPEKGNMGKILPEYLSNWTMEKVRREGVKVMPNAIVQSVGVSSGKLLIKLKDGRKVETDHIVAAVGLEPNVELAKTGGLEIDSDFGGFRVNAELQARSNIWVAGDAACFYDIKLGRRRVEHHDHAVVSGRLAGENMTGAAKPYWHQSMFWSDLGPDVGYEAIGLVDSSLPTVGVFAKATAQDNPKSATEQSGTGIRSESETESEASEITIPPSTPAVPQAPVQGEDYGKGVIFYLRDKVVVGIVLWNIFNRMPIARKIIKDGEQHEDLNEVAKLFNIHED

Experiments:
[1] = target: recombinant AIF (103-613) (human) (UniProt O95831); assay: GST pull-down of recombinant AIF
[2] = target: recombinant AIF (103-613) (human) (UniProt O95831); assay: GST pull-down

B1: GST-tagged point mutant of MIA40 C4S (protein, not shown: a dimerising Fc or GST; small tags and cut ends)
chain: MSYSRQEGKDRIIFVTKEDHETPSSAELVADDPNDPYEEHGLILPNGNINWNCPCLGGMASGPCGEQFKSAFSCFHYSTEEIKGSDCVDQFRAMQECMQKYPDLYPQEDEDEEEEREKKPAEQAEETAPIEATATKEEEGSS
- binding [1]: binds

B5: GST-tagged point mutant of MIA40 C53S+C55S (protein, not shown: a dimerising Fc or GST; small tags and cut ends)
chain: B1 chain with S4C, C53S, C55S
- binding [1]: binds

B6: GST-tagged full length MIA40 (wt) (protein, not shown: a dimerising Fc or GST)
chain: B1 chain with S4C
- binding [2]: binds

Now from value to binder:

- binding [1]: binds
B2: GST-tagged point mutant of MIA40 C97S (protein, not shown: a dimerising Fc or GST; small tags and cut ends)
chain: B1 chain with S4C, C97S

- binding [1]: binds
B3: GST-tagged point mutant of MIA40 C87S (protein, not shown: a dimerising Fc or GST; small tags and cut ends)
chain: B1 chain with S4C, C87S

- binding [1]: binds
B4: GST-tagged point mutant of MIA40 C74S (protein, not shown: a dimerising Fc or GST; small tags and cut ends)
chain: B1 chain with S4C, C74S
